The record followed here is paper PMC12248957.

Amino acid sequences for entries named in this document (tags omitted).
UniProt P60484: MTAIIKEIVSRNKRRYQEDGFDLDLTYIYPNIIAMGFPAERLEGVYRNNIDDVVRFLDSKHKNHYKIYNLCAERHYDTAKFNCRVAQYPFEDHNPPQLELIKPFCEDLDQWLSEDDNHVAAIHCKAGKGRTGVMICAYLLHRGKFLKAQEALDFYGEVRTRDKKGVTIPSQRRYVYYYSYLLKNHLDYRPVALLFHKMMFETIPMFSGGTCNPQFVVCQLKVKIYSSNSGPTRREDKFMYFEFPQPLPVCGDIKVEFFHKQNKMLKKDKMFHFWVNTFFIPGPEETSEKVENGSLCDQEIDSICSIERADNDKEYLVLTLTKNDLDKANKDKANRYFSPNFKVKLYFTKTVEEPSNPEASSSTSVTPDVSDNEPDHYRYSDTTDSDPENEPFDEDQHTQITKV
UniProt Q99497: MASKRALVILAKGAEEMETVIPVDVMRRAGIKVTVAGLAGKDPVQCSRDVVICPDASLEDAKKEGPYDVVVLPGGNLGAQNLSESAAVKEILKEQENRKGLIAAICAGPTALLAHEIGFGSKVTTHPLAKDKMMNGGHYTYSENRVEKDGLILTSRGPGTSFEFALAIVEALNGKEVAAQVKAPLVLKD

These are yes or no findings as the source states them, for the method shown. In cells and extracts the contact can be indirect. Some entries that bind do so weakly or less than the wild type.

In this test the target is phosphatase and tensin homolog (PTEN) (human (endogenous in HCE-T)) (UniProt P60484). The test can be described thus: co-IP; HCE-T cells lysed in immunoprecipitation cell lysis buffer; 10% of lysate as input; IgG as negative control; protein A/G magnetic beads; eluted by boiling; Western blotting. (In general: In western blotting, separated proteins are transferred to a membrane and probed.)

Consider DJ-1 (from UniProt Q99497 1-189), for which the binding entry is given as “binds”.
